Consider 3 substances from article PMC5064014.

Chains of the proteins cited; added tags and fusions are not shown.
UniProt Q8N5F7: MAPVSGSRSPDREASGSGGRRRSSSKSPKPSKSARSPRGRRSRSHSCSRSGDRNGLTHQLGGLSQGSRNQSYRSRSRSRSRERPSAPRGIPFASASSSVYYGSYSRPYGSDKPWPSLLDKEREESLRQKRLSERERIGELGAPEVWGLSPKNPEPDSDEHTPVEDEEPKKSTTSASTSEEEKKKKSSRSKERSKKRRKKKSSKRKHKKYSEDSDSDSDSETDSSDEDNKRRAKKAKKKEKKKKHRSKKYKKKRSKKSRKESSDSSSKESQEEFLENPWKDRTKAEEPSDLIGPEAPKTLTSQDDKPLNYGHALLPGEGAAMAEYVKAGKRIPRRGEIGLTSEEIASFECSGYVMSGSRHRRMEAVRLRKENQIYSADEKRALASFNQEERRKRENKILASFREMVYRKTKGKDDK
UniProt O43684: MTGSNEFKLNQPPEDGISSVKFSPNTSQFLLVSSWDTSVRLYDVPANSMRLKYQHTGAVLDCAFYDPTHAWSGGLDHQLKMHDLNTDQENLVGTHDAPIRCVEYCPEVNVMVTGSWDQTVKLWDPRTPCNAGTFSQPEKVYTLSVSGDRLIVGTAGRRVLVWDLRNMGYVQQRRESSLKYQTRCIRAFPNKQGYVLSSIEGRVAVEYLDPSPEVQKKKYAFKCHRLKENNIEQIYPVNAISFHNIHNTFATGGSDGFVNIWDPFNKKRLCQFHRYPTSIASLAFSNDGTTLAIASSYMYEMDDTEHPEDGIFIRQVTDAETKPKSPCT
UniProt O43683: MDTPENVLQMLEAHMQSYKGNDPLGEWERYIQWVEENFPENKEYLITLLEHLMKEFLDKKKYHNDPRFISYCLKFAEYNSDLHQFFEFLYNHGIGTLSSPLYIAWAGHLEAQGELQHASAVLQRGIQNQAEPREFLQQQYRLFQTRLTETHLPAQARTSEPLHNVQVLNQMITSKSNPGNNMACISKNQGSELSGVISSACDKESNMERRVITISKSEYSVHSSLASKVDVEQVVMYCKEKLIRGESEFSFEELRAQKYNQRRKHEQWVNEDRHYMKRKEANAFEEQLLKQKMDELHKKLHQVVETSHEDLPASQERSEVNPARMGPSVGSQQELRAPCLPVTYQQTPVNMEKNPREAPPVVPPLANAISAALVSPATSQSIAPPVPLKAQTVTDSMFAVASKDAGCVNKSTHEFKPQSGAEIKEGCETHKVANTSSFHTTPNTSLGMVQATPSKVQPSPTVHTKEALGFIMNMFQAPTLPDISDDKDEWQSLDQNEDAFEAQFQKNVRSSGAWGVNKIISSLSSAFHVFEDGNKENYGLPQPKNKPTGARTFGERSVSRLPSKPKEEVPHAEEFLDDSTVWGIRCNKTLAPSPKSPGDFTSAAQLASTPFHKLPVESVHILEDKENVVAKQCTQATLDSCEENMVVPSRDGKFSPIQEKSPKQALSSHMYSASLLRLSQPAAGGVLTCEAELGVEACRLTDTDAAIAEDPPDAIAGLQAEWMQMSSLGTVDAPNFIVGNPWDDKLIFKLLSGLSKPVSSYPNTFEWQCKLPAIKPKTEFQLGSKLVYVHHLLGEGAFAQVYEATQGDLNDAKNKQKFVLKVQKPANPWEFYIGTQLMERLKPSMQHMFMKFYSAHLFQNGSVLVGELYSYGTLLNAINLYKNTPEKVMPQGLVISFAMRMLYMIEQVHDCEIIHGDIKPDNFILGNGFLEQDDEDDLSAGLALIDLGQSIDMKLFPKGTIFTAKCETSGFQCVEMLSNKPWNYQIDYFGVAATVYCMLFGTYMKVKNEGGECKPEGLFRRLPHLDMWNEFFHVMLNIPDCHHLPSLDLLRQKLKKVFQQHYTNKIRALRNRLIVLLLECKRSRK
UniProt O60566: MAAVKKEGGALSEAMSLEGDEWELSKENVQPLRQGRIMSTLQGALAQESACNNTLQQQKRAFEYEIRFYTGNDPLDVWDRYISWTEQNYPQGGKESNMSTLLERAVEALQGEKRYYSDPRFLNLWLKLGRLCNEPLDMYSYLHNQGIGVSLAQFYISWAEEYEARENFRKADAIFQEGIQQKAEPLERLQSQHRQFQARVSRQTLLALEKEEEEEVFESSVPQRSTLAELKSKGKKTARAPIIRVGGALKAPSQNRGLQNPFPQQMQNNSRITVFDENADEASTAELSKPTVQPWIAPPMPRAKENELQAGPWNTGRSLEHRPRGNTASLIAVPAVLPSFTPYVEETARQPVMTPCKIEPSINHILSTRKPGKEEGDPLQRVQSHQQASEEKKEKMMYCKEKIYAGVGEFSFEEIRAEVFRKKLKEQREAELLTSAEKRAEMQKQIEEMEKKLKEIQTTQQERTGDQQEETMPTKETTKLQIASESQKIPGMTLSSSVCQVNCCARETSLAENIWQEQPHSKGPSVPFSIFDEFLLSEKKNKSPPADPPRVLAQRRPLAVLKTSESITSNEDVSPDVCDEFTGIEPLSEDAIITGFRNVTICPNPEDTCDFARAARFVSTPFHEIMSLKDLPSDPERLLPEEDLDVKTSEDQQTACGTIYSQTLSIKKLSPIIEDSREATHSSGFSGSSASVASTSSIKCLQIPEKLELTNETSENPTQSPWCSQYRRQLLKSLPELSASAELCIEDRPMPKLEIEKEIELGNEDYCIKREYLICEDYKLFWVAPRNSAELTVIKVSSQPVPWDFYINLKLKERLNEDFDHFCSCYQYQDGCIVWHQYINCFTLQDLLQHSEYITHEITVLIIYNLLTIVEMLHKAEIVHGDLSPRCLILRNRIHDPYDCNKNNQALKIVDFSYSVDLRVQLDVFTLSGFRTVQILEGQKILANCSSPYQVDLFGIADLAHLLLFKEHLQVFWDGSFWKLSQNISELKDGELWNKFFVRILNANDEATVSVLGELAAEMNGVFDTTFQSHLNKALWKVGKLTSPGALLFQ

Results are given in words; binding and its absence hold for the method and conditions named. Binding seen in cells or lysates may run through a third protein. Here binding means that the protein was enriched with, or labelled near, the bait; the list need not be complete.

This experiment addresses Flag-NKAP (wild type) (human) (UniProt Q8N5F7). Briefly: affinity purification with mass spectrometry; lysates of prometaphase HeLa cells stably expressing Flag-vector/Flag-NKAP; Flag immunocomplex, gel bands digested and analysed by mass spectrometry.

Take “Bub3 (endogenous, HeLa) (from UniProt O43684 1-328)”: the binding entry was “binds”.
Take “Bub1 (endogenous, HeLa) (from UniProt O43683 1-1085)”: the binding entry is “binds”.
In the case of “BubR1 (endogenous, HeLa) (from UniProt O60566 1-1050)” it was “binds”.
